From the supplement of paper PMC12889115
Some of the results follow. These are raw signals, not scaled to a control.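 First-pass screen: polymyxin B was added at a level that permeabilizes the Salmonella outer membrane while sparing the inner membrane. DMSO wells, with and without polymyxin B, defined maximum growth. Because plates differed from one another, each plate's data were ranked separately and the compounds with the lowest OD600 were carried forward as hits.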

Test system: Salmonella enterica serovar Typhimurium SL1344
Test: bacterial growth OD600 after 18 h with compound and polymyxin B; higher = more bacterial growth (less inhibition)
Settings: 50 µM, Mueller-Hinton broth

| Structure (SMILES) | bacterial growth OD600 (polymyxin B 1 µg/mL) | bacterial growth OD600 (polymyxin B 0.75 µg/mL) |
| --- | --- | --- |
| COCCN(CC1CCN(Cc2ccccc2OC)CC1)C(=O)CN1CCCCC1 | 0.974 |  |
| COc1ccc(-c2noc(CN(C)Cc3cnn(-c4cccc(OC)c4)c3)n2)cc1 | 0.857 |  |
| COc1ccc(OC2CCN(C(=O)C3CC3)CC2)c(C(=O)NC2CCCc3ccccc32)c1 (stereo not given) |  | 0.621 |
| CCNC(=O)c1sc2ncnc(NCCc3ccccn3)c2c1C |  | 1.02 |
| Cc1cnccc1CN(C)C(=O)CC(c1cccc(O)c1)c1cccc(Cl)c1 (stereo not given) | 0.006 |  |
| COCCN1CC(C(=O)NCc2csc(-c3ccccc3)n2)CCC1=O (stereo not given) | 0.851 |  |
| COCCN1CC(C(=O)NCC2(O)CCCCC2)CCC1=O (stereo not given) | 1.1 |  |
| Cc1cc2nc(N3CCC(C(=O)NC4CCCCCC4)CC3)nc(C)c2cc1C |  | 0.009 |
| CN(CCC1CCOCC1)C(=O)c1cc(Cn2ccc3ccccc32)[nH]n1 |  | 0.801 |
| COCc1noc(-c2ccc(N(C)CC3CCOCC3)nc2)n1 | 0.843 |  |
| CCn1nc(C)c(CN2CCC3(CC2)c2ccccc2[C@@H](NC(=O)c2ccco2)[C@@H]3OC)c1C |  | 0.778 |
| Cc1cc(CNC2CCN(c3ccc(C(=O)NCCN4CCOCC4)cc3)CC2)nn1C |  | 0.907 |
| CC(C)(O)C#Cc1ccc(C(=O)N2CCCC(C(=O)c3ccc4c(c3)OCO4)C2)o1 (stereo not given) | 0.837 |  |
| CCN1CCN(C(=O)c2ccc(N3CCC(N4CCOc5ccc(Cl)cc5C4)CC3)cc2)CC1 |  | 0.793 |
| CC(C)CN1CCC(C(=O)Nc2ccc(Oc3ccccc3F)cc2)CC1 | 0.885 |  |
| CC(C)CN(CC1CCN(C2Cc3ccccc3C2)CC1)CC1CCCO1 (stereo not given) | 0.738 |  |
| COCCO[C@H]1[C@H](NC(=O)C(C)C)c2ccccc2C12CCN(C(=O)c1cccc(F)c1F)CC2 |  | 0.819 |
| CCCS(=O)(=O)N1CCC(C2CCN(c3ncccn3)CC2)C1 (stereo not given) |  | 0.847 |
| O=C(c1ccccn1)N1CCCC(CCc2c(F)cccc2F)C1 (stereo not given) |  | 0.847 |
| CO[C@H]1[C@H](NC(=O)c2ccco2)c2ccccc2C12CCN(Cc1cc(C(C)C)[nH]n1)CC2 |  | 0.963 |
| CC(NC(=O)CCC1(Cc2ccc3ccccc3c2)CCC(=O)N1)c1cnn(-c2ccccc2)c1 (stereo not given) |  | 0.768 |
| CC(C)c1ccc(NC2CCCN(C(=O)C3=NN(C)C(=O)CC3)C2)cc1 (stereo not given) | 1.04 |  |
| COc1ccc(-c2nn(-c3ccccc3F)cc2CN2CCC[C@H]2CO)cc1 | 0.901 |  |
| COCCC(=O)Nc1cc(C(=O)NC2CCS(=O)(=O)C2)cc2nc(-c3ccccc3)n(C)c12 (stereo not given) |  | 0.824 |
| O=C(c1ccc(N2CCCOCC2)nc1)N1CCC(CCn2cccn2)CC1 |  | 0.965 |
| COC(=O)C1CCCCN1Cc1nc(N(C)Cc2ccc(OC)c(OC)c2)c2ccccc2n1 (stereo not given) |  | 0.586 |
| CC(C)Oc1ccc(C(=O)NCC2Cc3c(F)ccc(-c4ccncc4)c3O2)cc1 (stereo not given) |  | 0.616 |
| O=C1NCCN1CCNC1CCN(c2ccc(C(=O)N3CCc4ccccc4C3)cc2)CC1 |  | 0.876 |
| O=C(CCc1nnc(-c2ccc(-c3ccccc3)cc2)o1)N1CCCCCCC1 |  | -0.001 |
| Cc1cc(CN(C)C(=O)C2CCC(=O)N(CCc3cccc(F)c3)C2)on1 (stereo not given) | 0.814 |  |

2 successive compounds out of the list so far, quoted:

| Structure (SMILES) | bacterial growth OD600 (polymyxin B 1 µg/mL) | bacterial growth OD600 (polymyxin B 0.75 µg/mL) |
| --- | --- | --- |
| CC(C)Oc1ccc(C(=O)NCC2Cc3c(F)ccc(-c4ccncc4)c3O2)cc1 (stereo not given) |  | 0.616 |
| O=C1NCCN1CCNC1CCN(c2ccc(C(=O)N3CCc4ccccc4C3)cc2)CC1 |  | 0.876 |
